In article PMC9276577, “SIRT1 pharmacological activation rescues vascular dysfunction and prevents thrombosis in MTHFR deficiency” (Cellular and Molecular Life Sciences: CMLS, 2022):
No constants are given. Whether binding was seen depends on the method and setting. Some entries that bind do so weakly or less than the wild type.

Biological target: endothelial nitric oxide synthase (eNOS) (mouse (endogenous in mesenteric arteries)) (UniProt P70313)
Experiment: low-temperature SDS-PAGE (LT-PAGE) with western blot; extracts of mesenteric arteries from wild-type and Mthfr+/- mice; SDS-resistant eNOS dimer and monomer detected by blot; vessels treated ex vivo (RSV 25 uM 1 h, ISIDE11) or mice treated in vivo for 21 days (RSV, ISIDE11, with or without EX527)

B1: endothelial nitric oxide synthase (eNOS) (enzyme, UniProt P70313 1-1202)
chain: MGNLKSVGQEPGPPCGLGLGLGLGLCGKQGPASPAPEPSQAPAPPSPTRPAPDHSPPLTRPPDGPRFPRVKNWEVGSITYDTLSAQAQQDGPCTSRRCLGSLVFPRKLQSRPTQGPSPTEQLLGQARDFINQYYNSIKRSGSQAHEQRLQEVEAEVAATGTYQLRESELVFGAKQAWRNAPRCVGRIQWGKLQVFDARDCRTAQEMFTYICNHIKYATNRGNLRSAITVFPQRCPGRGDFRIWNSQLIRYAGYRQQDGSVRGDPANVEITELCIQHGWTPGNGRFDVLPLLLQAPDEPPELFTLPPEMVLEVPLEHPTLEWFAALGLRWYALPAVSNMLLEIGGLEFPAAPFSGWYMSSEIGMRDLCDPHRYNILEDVAVCMDLDTRTTSSLWKDKAAVEINVAVLHSYQLAKVTIVDHHAATASFMKHLENEQKARGGCPADWAWIVPPISGSLTPVFHQEMVNYFLSPAFRYQPDPWKGSAAKGAGITRKKTFKEVANAVKISASLMGTVMAKRVKATILYGSETGRAQSYAQQLGRLFRKAFDPRVLCMDEYDVVSLEHEALVLVVTSTFGNGDPPENGESFAAALMEMSGPYNSSPRPEQHKSYKIRFNSVSCSDPLVSSWRRKRKESSNTDSAGALGTLRFCVFGLGSRAYPHFCAFARAVDTRLEELGGERLLQLGQGDELCGQEEAFRGWAQAAFQAACETFCVGEDAKAAARDIFSPKRSWKRQRYRLSTQAESLQLLPGLTHVHRRKMFQATILSVENLQSSKSTRATILVRLDTGGQEGLQYQPGDHIGVCPPNRPGLVEALLSRVEDPPPSTEPVAVEQLEKGSPGGPPPGWVRDPRLPPCTLRQALTYFLDITSPPSPRLLRLLSTLAEESSEQQELEALSQDPRRYEEWKWFSCPTLLEVLEQFPSVALPAPLILTQLPLLQPRYYSVSSAPSAHPGEIHLTIAVLAYRTQDGLGPLHYGVCSTWMSQLKAGDPVPCFIRGAPSFRLPPDPNLPCILVGPGTGIAPFRGFWQDRLHDIEIKGLQPAPMTLVFGCRCSQLDHLYRDEVLDAQQRGVFGQVLTAFSRDPGSPKTYVQDLLRTELAAEVHRVLCLEQGHMFVCGDVTMATSVLQTVQRILATEGGMELDEAGDVIGVLRDQQRYHEDIFGLTLRTQEVTSRIRTQSFSLQERQLRGAVPWSFDPPGPEIPGS
  binding: binds
